Measured values taken from publication PMC7187271.

T1: biotin-labeled 7Ap peptide (MH[pSer]PGAD, synthetically phosphorylated serine residue) (mouse)
T1 sequence (peptide, phosphoserine (MH[pSer]PGAD); biotin on the N-terminus): MHSPGAD

T2: biotin-labeled 7-aa peptide 7A (MHSPGAD) (mouse)
T2 sequence (peptide, biotin on the N-terminus): MHSPGAD

T3: biotin-labeled 7Aa peptide (7-aa peptide with a serine substituted with an alanine, MHAPGAD) (mouse)
T3 sequence (peptide, biotin on the N-terminus): MHAPGAD


Experiments:
Experiment in all cases: affinity purification with mass spectrometry; biotin-labeled peptide with lysate of VEGF-treated/untreated Sca1+-VPCs, streptavidin beads, eluate on SDS-PAGE followed by proteomics analysis (pilot study); only the target purified
[1] = target: T1, biotin-labeled 7Ap peptide (MH[pSer]PGAD, synthetically phosphorylated serine residue) (mouse)
[2] = target: T2, biotin-labeled 7-aa peptide 7A (MHSPGAD) (mouse)
[3] = target: T3, biotin-labeled 7Aa peptide (7-aa peptide with a serine substituted with an alanine, MHAPGAD) (mouse)

Binder | binding [1] | binding [2] | binding [3]
p120 protein (CTNND1) (protein, UniProt P30999 1-938) MDDSEVESTASILASVKEQEAQFEKLTRALEEERRHVSAQLERVRVSPQDANSLMANGTLTRRHQNGRFVGDADLERQKFSDLKLNGPQDHNHLLYSTIPRMQEPGQIVETYTEEDPEGAMSVVSVETTDDGTTRRTETTVKKVVKTMTTRTVQPVPMGPDGLPVDASAVSNNYIQTLGRDFRKNGNGGPGPYVGQAGTATLPRNFHYPPDGYGRHYEDGYPGGSDNYGSLSRVTRIEERYRPSMEGYRAPSRQDVYGPQPQVRVGGSSVDLHRFHPEPYGLEDDQRSMGYDDLDYGMMSDYGTARRTGTPSDPRRRLRSYEDMIGEEVPPDQYYWAPLAQHERGSLASLDSLRKGMPPPSNWRQPELPEVIAMLGFRLDAVKSNAAAYLQHLCYRNDKVKTDVRKLKGIPILVGLLDHPKKEVHLGACGALKNISFGRDQDNKIAIKNCDGVPALVRLLRKARDMDLTEVITGTLWNLSSHDSIKMEIVDHALHALTDEVIIPHSGWEREPNEDCKPRHIEWESVLTNTAGCLRNVSSERSEARRKLRECDGLVDALIFIVQAEIGQKDSDSKLVENCVCLLRNLSYQVHREIPQAERYQEALPTVANSTGPHAASCFGAKKGKDEWFSRGKKPTEDPANDTVDFPKRTSPARGYELLFQPEVVRIYISLLKESKTPAILEASAGAIQNLCAGRWTYGRYIRSALRQEKALSAIAELLTSEHERVVKAASGALRNLAVDARNKELIGKHAIPNLVKNLPGGQQNSSWNFSEDTVVSILNTINEVIAENLEAAKKLRETQGIEKLVLINKSGNRSEKEVRAAALVLQTIWGYKELRKPLEKEGWKKSDFQVNLNNASRSQSSHSYDDSTLPLIDRNQKSDKKPDREEIPMSNMGSNTKSLDNNYSTLNERGDHNRTLDRSGDLGDMEPLKGAPLMQKI | binds | binds | 
phosphorylated MEKK1 (phospho-MEKK1 Ser393) (enzyme, UniProt P53349 1-1493, phosphoserine at 393) MAAAAGDRASSSGFPGAAAASPEAGGGGGGGGALQGSGAPAAGAAGLLREPGSAGRERADWRRRQLRKVRSVELDQLPEQPLFLAAASPPCPSTSPSPEPADAAAGASRFQPAAGPPPPGAASRCGSHSAELAAARDSGARSPAGAEPPSAAAPSGREMENKETLKGLHKMEDRPEERMIREKLKATCMPAWKHEWLERRNRRGPVVVKPIPIKGDGSEVNNLAAEPQGEGQAGSAAPAPKGRRSPSPGSSPSGRSVKPESPGVRRKRVSPVPFQSGRITPPRRAPSPDGFSPYSPEETSRRVNKVMRARLYLLQQIGPNSFLIGGDSPDNKYRVFIGPQNCSCGRGAFCIHLLFVMLRVFQLEPSDPMLWRKTLKNFEVESLFQKYHSRRSSRIKAPSRNTIQKFVSRMSNSHTLSSSSTSTSSSENSIKDEEEQMCPICLLGMLDEESLTVCEDGCRNKLHHHCMSIWAEECRRNREPLICPLCRSKWRSHDFYSHELSSPVESPASLRAVQQPSSPQQPVAGSQRRNQESSFNLTHFGTQQIPSAYKDLAEPWIQVFGMELVGCLFSRNWNVREMALRRLSHDVSGALLLANGESTGNSGGGSGGSLSAGAASGSSQPSISGDVVEACCSVLSIVCADPVYKVYVAALKTLRAMLVYTPCHSLAERIKLQRLLRPVVDTILVKCADANSRTSQLSISTVLELCKGQAGELAVGREILKAGSIGVGGVDYVLSCILGNQAESNNWQELLGRLCLIDRLLLEFPAEFYPHIVSTDVSQAEPVEIRYKKLLSLLTFALQSIDNSHSMVGKLSRRIYLSSARMVTAVPAVFSKLVTMLNASGSTHFTRMRRRLMAIADEVEIAEVIQLGVEDTVDGHQDSLQAVAPTSCLENSSLEHTVHREKTGKGLSATRLSASSEDISDRLAGVSVGLPSSTTTEQPKPAVQTKGRPHSQCLNSSPLSHAQLMFPAPSAPCSSAPSVPDISKHRPQAFVPCKIPSASPQTQRKFSLQFQRNCSEHRDSDQLSPVFTQSRPPPSSNIHRPKPSRPVPGSTSKLGDATKSSMTLDLGSASRCDDSFGGGGNSGNAVIPSDETVFTPVEDKCRLDVNTELNSSIEDLLEASMPSSDTTVTFKSEVAVLSPEKAENDDTYKDDVNHNQKCKEKMEAEEEEALAIAMAMSASQDALPIVPQLQVENGEDIIIIQQDTPETLPGHTKAKQPYREDAEWLKGQQIGLGAFSSCYQAQDVGTGTLMAVKQVTYVRNTSSEQEEVVEALREEIRMMGHLNHPNIIRMLGATCEKSNYNLFIEWMAGGSVAHLLSKYGAFKESVVINYTEQLLRGLSYLHENQIIHRDVKGANLLIDSTGQRLRIADFGAAARLASKGTGAGEFQGQLLGTIAFMAPEVLRGQQYGRSCDVWSVGCAIIEMACAKPPWNAEKHSNHLALIFKIASATTAPSIPSHLSPGLRDVAVRCLELQPQDRPPSRELLKHPVFRTTW |  |  | binds
14-3-3 gamma protein (protein, UniProt P61982 1-247) MVDREQLVQKARLAEQAERYDDMAAAMKNVTELNEPLSNEERNLLSVAYKNVVGARRSSWRVISSIEQKTSADGNEKKIEMVRAYREKIEKELEAVCQDVLSLLDNYLIKNCSETQYESKVFYLKMKGDYYRYLAEVATGEKRATVVESSEKAYSEAHEISKEHMQPTHPIRLGLALNYSVFYYEIQNAPEQACHLAKTAFDDAIAELDTLNEDSYKDSTLIMQLLRDNLTLWTSDQQDDDGGEGNN | binds | binds | 

These are yes or no findings as the source states them, for the method shown. Binding seen in cells or lysates may run through a third protein. A yes stands for co-enrichment or nearness to the bait. Other partners may have been found.
